The supplement of paper PMC4807443
Where a name gives a salt, the structure may show the parent alone. Some of the results follow. The numbers are fractions of the control, whatever unit the source prints. Most entries show no effect beyond the scatter of the controls.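 MIN6 is a mouse insulinoma beta-cell line that stably carries a lentiviral reporter in which the Pdx1 and Ins1 promoters each drive a nucleus-targeted fluorescent protein; cells were counted by automated imaging with a Hoechst nuclear stain. In the screen, a drug was a possible hit when its Ins1 promoter readout lay beyond two median absolute deviations from the DMSO controls while Pdx1 activity stayed near normal.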

Test system: MIN6
Test: % Pdx1+ Ins1-low (RFP-only, immature) cells relative to DMSO control (fold of DMSO control); higher = more immature Pdx1+/Ins1-low cells
Settings: 8.5 µM; 48 h; glucose 5 mM

Compound | % Pdx1+ Ins1-low
CN(C)CCOC(=O)C(c1ccccc1)C1(O)CCCC1 (stereo unspecified) [Cyclopentolate hydrochloride] | 1.2
CC1=CC(=O)C2=C(C)CC[C@@H]3[C@H](OC(=O)[C@H]3C)[C@@H]12 [Leucomisine] | 1.15
Nc1ccc(/N=N/c2ccccc2)c(N)n1 [Phenazopyridine hydrochloride] | 0.947
CCC1(C)CC(=O)NC1=O (stereo unspecified) [Ethosuximide] | 1.26
CC(NCCc1ccc(O)cc1)C(O)c1ccc(O)cc1 (stereo unspecified) [Ritodrine hydrochloride] | 1.16
C[N+](C)(CCOc1ccccc1)Cc1ccccc1.O=C([O-])c1cc2ccccc2cc1O [Bephenium hydroxynaphthoate] | 0.635
CCCNC(C)(C)COC(=O)c1ccccc1 [Meprylcaine hydrochloride] | 0.64
CC(=O)Oc1ccc(C(c2ccc(OC(C)=O)cc2)c2ccccn2)cc1 [Bisacodyl] | 1.34
CCC(C)(C)C(=O)O[C@H]1C[C@@H](C)C=C2C=C[C@H](C)[C@H](CC[C@@H]3C[C@@H](O)CC(=O)O3)[C@H]21 [Simvastatin] | 0.624
N[C@@H](Cc1ccc(O)c(O)c1)C(=O)O [Levodopa] | 1.08
CN1CCN2c3ccccc3Cc3ccccc3C2C1 (stereo unspecified) [Mianserine hydrochloride] | 0.917
O=C(O)CCC(=O)c1ccc(-c2ccccc2)cc1 [Fenbufen] | 0.952
C[C@H](CCC(=O)O)[C@H]1CC[C@H]2[C@@H]3C(=O)C[C@@H]4CC(=O)CC[C@]4(C)[C@H]3CC(=O)[C@]12C [Dehydrocholic acid] | 0.634
CCOC(=O)C1=C(C)NC(C)=C(C(=O)OC)C1c1cccc(Cl)c1Cl (stereo unspecified) [Felodipine] | 0.789
Nc1ncn(C2OC(CO)C(O)C2O)c(=O)n1 (stereo unspecified) [Azacytidine-5] | 0.707
CC(C)(C)NC[C@H](O)COc1cccc2c1CCCC2=O [(-) -Levobunolol hydrochloride] | 0.676
C[N+](C)(C)CCOC(N)=O [Carbachol] | 1.24
OC(CCN1CCCCC1)(c1ccccc1)c1ccccc1 [Pridinol methanesulfonate salt] | 1.29
CCN(CC)CCNC(=O)c1cc(Br)c(N)cc1OC [Bromopride] | 1.14
CC(C)NNC(=O)c1ccncc1 [Iproniazide phosphate] | 0.789
CCOc1ccc(Cc2nccc3cc(OCC)c(OCC)cc23)cc1OCC [Ethaverine hydrochloride] | 0.896
O=C(Nc1ccc([N+](=O)[O-])cc1Cl)c1cc(Cl)ccc1O [Niclosamide] | 1.04
C#C[C@]1(O)CC[C@H]2[C@@H]3CCC4=Cc5oncc5C[C@]4(C)[C@H]3CC[C@@]21C [Danazol] | 1.13
CC12CC3CC(C)(C1)CC(N)(C3)C2 [Memantine Hydrochloride] | 0.401

Compound | % Pdx1+ Ins1-low
CN1CCCN=C1/C=C/c1cccs1 [Pyrantel tartrate] | 0.786
CCC[C@@H]1C[C@@H](C(=O)N[C@@H]([C@H]2O[C@H](SC)[C@H](O)[C@@H](O)[C@H]2O)[C@@H](C)O)N(C)C1 [Lincomycin hydrochloride] | 1.37
CC1(C)O[C@@H]2C[C@H]3[C@@H]4C[C@H](F)C5=CC(=O)CC[C@]5(C)[C@H]4[C@@H](O)C[C@]3(C)[C@]2(C(=O)CO)O1 [Flurandrenolide] | 0.736
NNC(=O)c1ccncc1 [Isoniazid] | 0.715
CCN1CCCC1CNC(=O)c1cc(S(N)(=O)=O)ccc1OC (stereo unspecified) [Sulpiride] | 0.785
Cc1cccc(N(C)C(=S)Oc2ccc3ccccc3c2)c1 [Tolnaftate] | 0.864
O=c1[nH]c(=O)n([C@H]2C[C@H](O)[C@@H](CO)O2)cc1I [Idoxuridine] | 0.875
CCCCc1oc2ccccc2c1C(=O)c1cc(I)c(OCCN(CC)CC)c(I)c1 [Amiodarone hydrochloride] | 1.34
O=C(O)c1cccnc1 [Niacin] | 0.594
CC1(C)O[C@@H]2C[C@H]3[C@@H]4C[C@H](F)C5=CC(=O)C=C[C@]5(C)[C@H]4[C@@H](O)C[C@]3(C)[C@]2(C(=O)CO)O1 [Flunisolide] | 1.01
C[C@H](CS)C(=O)N1CCC[C@H]1C(=O)O [Captopril] | 1.28
CC[C@H](c1ccc(O)cc1)[C@@H](CC)c1ccc(O)cc1 [Hexestrol] | 1.05
Cc1c(Nc2ncccc2C(=O)O)cccc1C(F)(F)F [Flunixin meglumine] | 0.625
CC1O[C@H](O[C@]2(O[C@H]3CC[C@@]4(C)C(=CC[C@H]5[C@@H]6C[C@H]7[C@H]([C@H](C)[C@H]8CC[C@H](C)CN87)[C@@]6(C)CC[C@@H]54)C3)C[C@@H](O[C@@H]3OC(CO)[C@@H](O)[C@@H](O)C3O)[C@@H](O)C(CO)O2)C(O)[C@@H](O)[C@H]1O (stereo partly drawn) [Solanine alpha] | 1.3
CC(C)(C)CC(C)(C)c1ccc(OCCOCC[N+](C)(C)Cc2ccccc2)cc1 [Benzethonium chloride] | 0.634
CN1[C@@H]2CC[C@H]1C[C@@H](OC(=O)C(O)c1ccccc1)C2 (mixture of isomers) [Homatropine hydrobromide (R,S)] | 1.08
C=C1C(=O)O[C@H]2[C@H]1CC/C(C)=C/CC[C@@]1(C)O[C@@H]21 [Parthenolide] | 0.877
CCCCOc1ccc(C(=O)CCN2CCCCC2)cc1 [Dyclonine hydrochloride] | 0.917
C=C1CC[C@H](O)C/C1=C/C=C1\CCC[C@]2(C)[C@@H]([C@H](C)/C=C/[C@H](C)C(C)C)CC[C@@H]12 [Calciferol] | 1.16
Nc1nc(N)c2nc(-c3ccccc3)c(N)nc2n1 [Triamterene] | 0.946
CC(C)(C)NC(=O)[C@H]1CC[C@H]2[C@@H]3CC[C@H]4NC(=O)C=C[C@]4(C)[C@H]3CC[C@]12C [Finasteride] | 0.655
C[C@H]1[C@H]2CC[C@H]3[C@@H]4CC=C5C[C@@H](N(C)C)CC[C@]5(C)[C@H]4CC[C@]23CN1C [Conessine] | 0.99
Nc1ncnc2c1ncn2[C@@H]1O[C@@H]2COP(=O)(O)O[C@H]2[C@H]1O [(-)-Adenosine 3',5'-cyclic monophosphate] | 0.823
COC(=O)[C@H]1[C@H]2C[C@H]3c4[nH]c5ccccc5c4CCN3C[C@H]2CC[C@@H]1O [Rauwolscine hydrochloride] | 0.925

Compound | % Pdx1+ Ins1-low
CC(CN(C)C)CN1c2ccccc2CCc2ccccc21 (stereo unspecified) [Trimipramine maleate salt] | 0.849
OC(CCN1CCCC1)(c1ccccc1)C1CCCCC1 (stereo unspecified) [Procyclidine hydrochloride] | 1.07
CC(C)NCC(O)COc1cccc2[nH]ccc12 (stereo unspecified) [Pindolol] | 1.24
CCN(CC)C(=O)N1CCN(C)CC1 [Diethylcarbamazine citrate] | 0.766
CCN(CCCc1ccccc1)CCCc1ccccc1 [Alverine citrate salt] | 1.2
Cc1c(C)c2c(c(C)c1O)CC[C@@](C)(CCC[C@H](C)CCC[C@H](C)CCCC(C)C)O2 (racemic) [Tocopherol (R,S)] | 1.78
Clc1ccccc1C(c1ccccc1)(c1ccccc1)n1ccnc1 [Clotrimazole] | 0.555
Clc1ccc(COC(Cn2ccnc2)c2ccc(Cl)cc2Cl)cc1 (stereo unspecified) [Econazole nitrate] | 0.709
C[C@H](CCC(=O)NCC(=O)O)[C@H]1CC[C@H]2[C@@H]3[C@H](O)C[C@@H]4C[C@H](O)CC[C@]4(C)[C@H]3C[C@H](O)[C@]12C [Glycocholic acid] | 0.909
CCCC(C(=O)OCCN(CC)CC)(c1ccccc1)c1ccccc1 [Proadifen hydrochloride] | 0.775
C=CC[N@@+]12CC[C@@]34c5ccccc5N5/C=C6/[C@H]7C[C@H]8[C@@]9(CC[N@@+]8(CC=C)C/C7=C/CO)c7ccccc7N(/C=C(/[C@@H](C[C@@H]31)/C(=C\CO)C2)[C@H]54)[C@@H]69 [Alcuronium chloride] | 1.09
NC[C@H]1CC[C@H](C(=O)O)CC1 [Tranexamic acid] | 0.694
C=CCc1ccccc1OCC(O)CNC(C)C (stereo unspecified) [Alprenolol hydrochloride] | 1.11
CCCCOc1ccc(CC(=O)NO)cc1 [Bufexamac] | 0.632
CC(=O)OC(C)C[N+](C)(C)C (stereo unspecified) [Methacholine chloride] | 0.358
O=C(O)c1cc(=O)c2c(OCC(O)COc3cccc4oc(C(=O)O)cc(=O)c34)cccc2o1 [Cromolyn disodium salt] | 0.649
CN(C)CCC(c1ccccc1)c1ccccn1 (stereo unspecified) [Pheniramine maleate] | 1.35
CCSc1ccc2c(c1)N(CCCN1CCN(C)CC1)c1ccccc1S2 [Thiethylperazine malate] | 1.02
Nc1ccc(S(N)(=O)=O)cc1 [Sulfanilamide] | 1.2
CC(CCc1ccc(O)cc1)NCCc1ccc(O)c(O)c1 (stereo unspecified) [Dobutamine hydrochloride] | 0.809
CC[C@]12CCCN3CCc4c(n(c5ccccc45)[C@@](O)(C(=O)OC)C1)[C@@H]32 [Vincamine] | 0.52
Cn1c(=O)c2c(ncn2CC(O)CO)n(C)c1=O (stereo unspecified) [Diprophylline] | 0.726
C=C(NC(=O)C(=C)NC(=O)c1csc(C2=N[C@@H]3c4csc(n4)[C@H]4NC(=O)c5csc(n5)[C@H]([C@](C)(O)[C@@H](C)O)NC(=O)[C@H]5CSC(=N5)/C(=C/C)NC(=O)[C@H]([C@@H](C)O)NC(=O)c5csc(n5)[C@]3(CC2)NC(=O)[C@H](C)NC(=O)C(=C)NC(=O)[C@H](C)NC(=O)[C@H]([C@@H](C)CC)N[C@@H]2C=Cc3c([C@H](C)O)cc(nc3[C@H]2O)C(=O)O[C@@H]4C)n1)C(N)=O [Thiostrepton] | 0.821

A second format for part of the listing above.
Compound	% Pdx1+ Ins1-low
CCC(C)(C)C(=O)O[C@H]1C[C@@H](C)C=C2C=C[C@H](C)[C@H](CC[C@@H]3C[C@@H](O)CC(=O)O3)[C@H]21 [Simvastatin]	0.624
C[C@H](CCC(=O)O)[C@H]1CC[C@H]2[C@@H]3C(=O)C[C@@H]4CC(=O)CC[C@]4(C)[C@H]3CC(=O)[C@]12C [Dehydrocholic acid]	0.634
C=C(NC(=O)C(=C)NC(=O)c1csc(C2=N[C@@H]3c4csc(n4)[C@H]4NC(=O)c5csc(n5)[C@H]([C@](C)(O)[C@@H](C)O)NC(=O)[C@H]5CSC(=N5)/C(=C/C)NC(=O)[C@H]([C@@H](C)O)NC(=O)c5csc(n5)[C@]3(CC2)NC(=O)[C@H](C)NC(=O)C(=C)NC(=O)[C@H](C)NC(=O)[C@H]([C@@H](C)CC)N[C@@H]2C=Cc3c([C@H](C)O)cc(nc3[C@H]2O)C(=O)O[C@@H]4C)n1)C(N)=O [Thiostrepton]	0.821
